Experimental data as given in the supplement of paper PMC10849652.
The list shows a part of the results.

Protein sequences, listed by entry. Tags and fused reporters are not part of them. Lines headed by an entry give the natural chain unless they say otherwise; changes in a name come on top.
UniProt Q8IXI2: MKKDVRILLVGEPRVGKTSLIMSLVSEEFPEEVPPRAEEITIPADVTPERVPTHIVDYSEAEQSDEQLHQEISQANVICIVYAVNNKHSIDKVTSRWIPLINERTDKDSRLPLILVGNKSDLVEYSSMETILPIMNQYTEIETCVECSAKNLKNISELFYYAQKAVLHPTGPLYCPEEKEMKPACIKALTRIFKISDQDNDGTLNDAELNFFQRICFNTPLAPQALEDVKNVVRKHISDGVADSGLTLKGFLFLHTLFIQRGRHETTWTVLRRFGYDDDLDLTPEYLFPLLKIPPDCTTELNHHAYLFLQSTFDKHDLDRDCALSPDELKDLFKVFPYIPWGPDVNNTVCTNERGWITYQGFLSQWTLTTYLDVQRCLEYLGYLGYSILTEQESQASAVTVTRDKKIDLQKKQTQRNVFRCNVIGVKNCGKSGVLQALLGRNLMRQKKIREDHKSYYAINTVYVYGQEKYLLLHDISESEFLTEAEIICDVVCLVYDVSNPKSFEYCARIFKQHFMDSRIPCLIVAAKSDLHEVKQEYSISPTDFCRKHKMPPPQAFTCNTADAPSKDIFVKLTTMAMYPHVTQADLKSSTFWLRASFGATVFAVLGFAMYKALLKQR
UniProt O00287: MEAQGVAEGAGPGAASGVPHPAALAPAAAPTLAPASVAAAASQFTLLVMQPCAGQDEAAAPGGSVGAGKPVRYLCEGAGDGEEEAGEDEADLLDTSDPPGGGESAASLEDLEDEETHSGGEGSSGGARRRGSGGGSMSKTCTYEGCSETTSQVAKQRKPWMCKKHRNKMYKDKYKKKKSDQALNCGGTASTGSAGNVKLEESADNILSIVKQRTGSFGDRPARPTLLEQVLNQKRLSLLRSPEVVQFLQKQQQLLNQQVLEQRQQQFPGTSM
UniProt Q9P258, whole entry, looked up: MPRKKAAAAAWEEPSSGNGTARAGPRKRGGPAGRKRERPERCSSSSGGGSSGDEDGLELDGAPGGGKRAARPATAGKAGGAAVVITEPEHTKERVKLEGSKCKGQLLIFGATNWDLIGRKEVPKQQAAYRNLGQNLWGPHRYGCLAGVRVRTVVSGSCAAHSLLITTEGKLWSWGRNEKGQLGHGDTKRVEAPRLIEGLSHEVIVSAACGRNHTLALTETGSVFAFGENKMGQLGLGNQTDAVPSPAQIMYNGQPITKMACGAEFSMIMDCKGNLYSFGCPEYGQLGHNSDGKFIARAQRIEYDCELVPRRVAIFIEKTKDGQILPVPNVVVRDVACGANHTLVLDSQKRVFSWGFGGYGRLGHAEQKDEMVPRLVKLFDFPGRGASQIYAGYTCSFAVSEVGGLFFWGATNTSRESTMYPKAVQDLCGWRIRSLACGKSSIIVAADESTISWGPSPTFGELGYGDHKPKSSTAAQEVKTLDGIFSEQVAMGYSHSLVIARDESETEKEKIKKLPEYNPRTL
UniProt Q8ND24: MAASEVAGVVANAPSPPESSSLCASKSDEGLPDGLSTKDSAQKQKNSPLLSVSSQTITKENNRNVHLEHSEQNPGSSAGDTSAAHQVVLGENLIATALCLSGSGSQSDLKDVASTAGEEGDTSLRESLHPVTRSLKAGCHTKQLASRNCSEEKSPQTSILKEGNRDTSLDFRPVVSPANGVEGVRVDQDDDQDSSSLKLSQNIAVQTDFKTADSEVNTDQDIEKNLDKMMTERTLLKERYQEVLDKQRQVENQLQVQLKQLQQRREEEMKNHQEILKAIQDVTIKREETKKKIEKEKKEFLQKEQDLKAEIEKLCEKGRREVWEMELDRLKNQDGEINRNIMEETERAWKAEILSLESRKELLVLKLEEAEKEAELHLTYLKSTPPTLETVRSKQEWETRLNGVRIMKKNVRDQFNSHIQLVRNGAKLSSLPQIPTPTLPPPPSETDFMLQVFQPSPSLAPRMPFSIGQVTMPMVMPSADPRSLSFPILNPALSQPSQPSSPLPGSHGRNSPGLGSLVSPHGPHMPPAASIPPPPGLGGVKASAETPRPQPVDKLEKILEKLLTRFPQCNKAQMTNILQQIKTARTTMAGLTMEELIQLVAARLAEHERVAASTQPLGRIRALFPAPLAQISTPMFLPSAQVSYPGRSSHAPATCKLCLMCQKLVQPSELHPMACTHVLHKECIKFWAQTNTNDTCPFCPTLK
UniProt P35249, whole entry, looked up: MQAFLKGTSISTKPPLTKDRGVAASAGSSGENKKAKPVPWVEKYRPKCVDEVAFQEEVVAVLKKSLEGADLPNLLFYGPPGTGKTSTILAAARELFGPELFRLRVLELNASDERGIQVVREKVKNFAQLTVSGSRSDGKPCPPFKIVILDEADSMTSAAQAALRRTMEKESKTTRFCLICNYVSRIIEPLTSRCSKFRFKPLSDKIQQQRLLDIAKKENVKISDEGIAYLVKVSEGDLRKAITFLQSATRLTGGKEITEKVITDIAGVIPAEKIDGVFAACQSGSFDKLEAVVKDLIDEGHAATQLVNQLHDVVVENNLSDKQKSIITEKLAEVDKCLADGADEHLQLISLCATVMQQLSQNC
UniProt P35250, whole entry, looked up: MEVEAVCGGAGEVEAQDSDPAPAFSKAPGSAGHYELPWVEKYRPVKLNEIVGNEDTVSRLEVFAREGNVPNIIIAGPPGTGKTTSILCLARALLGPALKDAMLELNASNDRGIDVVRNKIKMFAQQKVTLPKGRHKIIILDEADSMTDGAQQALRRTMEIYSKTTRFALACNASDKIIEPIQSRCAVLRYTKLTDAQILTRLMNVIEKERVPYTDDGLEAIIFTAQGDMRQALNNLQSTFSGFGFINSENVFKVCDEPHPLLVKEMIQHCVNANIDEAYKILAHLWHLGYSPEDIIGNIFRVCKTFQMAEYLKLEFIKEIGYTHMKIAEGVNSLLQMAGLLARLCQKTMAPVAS
UniProt Q9BV68: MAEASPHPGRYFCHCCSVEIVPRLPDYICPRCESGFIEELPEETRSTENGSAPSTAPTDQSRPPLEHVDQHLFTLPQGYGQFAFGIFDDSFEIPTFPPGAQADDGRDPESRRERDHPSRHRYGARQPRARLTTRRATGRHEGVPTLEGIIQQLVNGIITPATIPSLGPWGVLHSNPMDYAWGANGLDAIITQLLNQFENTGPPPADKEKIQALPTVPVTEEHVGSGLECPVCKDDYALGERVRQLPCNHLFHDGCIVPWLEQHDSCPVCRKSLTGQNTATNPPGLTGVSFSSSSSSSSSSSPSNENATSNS
UniProt Q9H871: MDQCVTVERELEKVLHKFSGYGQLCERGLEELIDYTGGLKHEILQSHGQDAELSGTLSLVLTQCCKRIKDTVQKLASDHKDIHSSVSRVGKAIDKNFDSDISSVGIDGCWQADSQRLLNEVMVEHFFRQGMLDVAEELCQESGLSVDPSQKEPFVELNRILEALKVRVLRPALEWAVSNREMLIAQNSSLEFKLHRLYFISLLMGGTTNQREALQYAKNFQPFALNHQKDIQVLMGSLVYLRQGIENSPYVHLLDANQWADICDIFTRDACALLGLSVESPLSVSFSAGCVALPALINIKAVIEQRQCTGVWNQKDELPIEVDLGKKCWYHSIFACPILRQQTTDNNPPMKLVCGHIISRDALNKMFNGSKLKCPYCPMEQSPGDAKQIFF
UniProt Q9NWS8: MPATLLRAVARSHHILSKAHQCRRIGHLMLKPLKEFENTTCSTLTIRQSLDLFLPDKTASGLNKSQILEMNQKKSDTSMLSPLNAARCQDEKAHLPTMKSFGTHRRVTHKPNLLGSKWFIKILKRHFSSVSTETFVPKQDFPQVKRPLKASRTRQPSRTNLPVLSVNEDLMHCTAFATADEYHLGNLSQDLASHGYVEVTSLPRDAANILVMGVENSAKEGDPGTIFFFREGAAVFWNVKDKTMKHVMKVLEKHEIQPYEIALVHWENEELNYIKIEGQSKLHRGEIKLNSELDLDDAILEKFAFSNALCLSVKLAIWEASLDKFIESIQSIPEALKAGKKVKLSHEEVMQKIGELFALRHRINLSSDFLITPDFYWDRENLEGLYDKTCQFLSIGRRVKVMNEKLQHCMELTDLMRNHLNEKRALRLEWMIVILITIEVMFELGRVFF
UniProt O75792: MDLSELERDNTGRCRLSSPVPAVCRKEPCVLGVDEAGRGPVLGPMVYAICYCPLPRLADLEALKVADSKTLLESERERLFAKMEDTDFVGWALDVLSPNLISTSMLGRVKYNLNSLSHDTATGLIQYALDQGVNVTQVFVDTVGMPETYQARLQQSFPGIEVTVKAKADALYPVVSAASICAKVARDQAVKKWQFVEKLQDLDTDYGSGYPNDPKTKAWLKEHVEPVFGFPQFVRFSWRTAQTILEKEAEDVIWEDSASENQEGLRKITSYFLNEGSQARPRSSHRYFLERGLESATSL
UniProt Q8WVD3: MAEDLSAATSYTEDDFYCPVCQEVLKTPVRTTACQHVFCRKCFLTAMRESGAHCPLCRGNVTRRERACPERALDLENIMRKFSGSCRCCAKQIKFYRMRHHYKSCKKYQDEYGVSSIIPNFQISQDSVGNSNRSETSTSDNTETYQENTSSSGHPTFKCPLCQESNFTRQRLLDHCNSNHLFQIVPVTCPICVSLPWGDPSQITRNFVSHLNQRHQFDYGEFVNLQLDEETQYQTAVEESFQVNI
UniProt O43353, whole entry, looked up: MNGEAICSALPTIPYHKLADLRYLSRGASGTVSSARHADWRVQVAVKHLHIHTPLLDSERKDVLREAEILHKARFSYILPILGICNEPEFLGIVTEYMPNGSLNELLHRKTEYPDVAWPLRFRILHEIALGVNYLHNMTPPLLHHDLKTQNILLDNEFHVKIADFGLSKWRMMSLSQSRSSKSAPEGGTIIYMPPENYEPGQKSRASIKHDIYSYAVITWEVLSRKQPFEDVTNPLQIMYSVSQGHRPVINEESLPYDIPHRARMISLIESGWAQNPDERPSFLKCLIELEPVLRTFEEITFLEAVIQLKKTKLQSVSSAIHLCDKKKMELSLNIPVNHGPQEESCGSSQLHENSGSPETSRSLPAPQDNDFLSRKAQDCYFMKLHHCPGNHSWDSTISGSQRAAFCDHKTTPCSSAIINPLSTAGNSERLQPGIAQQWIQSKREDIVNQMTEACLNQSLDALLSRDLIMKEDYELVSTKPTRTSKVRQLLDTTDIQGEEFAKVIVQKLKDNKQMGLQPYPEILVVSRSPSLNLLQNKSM
UniProt P51606: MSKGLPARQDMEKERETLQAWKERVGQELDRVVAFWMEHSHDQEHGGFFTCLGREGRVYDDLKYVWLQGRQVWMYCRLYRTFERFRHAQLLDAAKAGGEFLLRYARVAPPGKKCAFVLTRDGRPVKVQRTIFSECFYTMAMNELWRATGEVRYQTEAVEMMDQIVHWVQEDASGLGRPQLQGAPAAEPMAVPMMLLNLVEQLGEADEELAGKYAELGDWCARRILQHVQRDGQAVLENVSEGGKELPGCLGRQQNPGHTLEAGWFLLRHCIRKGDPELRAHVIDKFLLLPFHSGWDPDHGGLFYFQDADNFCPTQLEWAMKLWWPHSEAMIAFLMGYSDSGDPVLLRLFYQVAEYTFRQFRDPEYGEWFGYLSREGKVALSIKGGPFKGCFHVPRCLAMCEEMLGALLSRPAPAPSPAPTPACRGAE
UniProt Q8TEB9: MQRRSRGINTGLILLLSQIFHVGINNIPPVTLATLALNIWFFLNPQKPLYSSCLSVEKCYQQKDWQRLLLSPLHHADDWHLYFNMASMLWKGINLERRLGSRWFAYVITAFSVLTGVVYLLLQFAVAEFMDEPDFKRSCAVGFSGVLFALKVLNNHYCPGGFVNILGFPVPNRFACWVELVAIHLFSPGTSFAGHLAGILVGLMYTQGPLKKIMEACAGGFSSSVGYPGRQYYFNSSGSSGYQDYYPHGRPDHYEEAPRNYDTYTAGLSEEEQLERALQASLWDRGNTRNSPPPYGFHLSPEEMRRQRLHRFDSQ

Assays:
Assay in all cases: log2 fold change, soluble protein after heating vs DMSO (PISA); higher = thermal stabilisation; K562 cells, 10 uM, 30 min; active = over 0.2 and 3.5 SD of the protein, either way, in both replicates (recomputed)
saracatinib = compound: CN1CCN(CCOc2cc(OC3CCOCC3)c3c(Nc4c(Cl)ccc5c4OCO5)ncnc3c2)CC1 [saracatinib]
Procedure, shortened: (§1)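 Soluble protein was quantified by TMTpro 16plex LC-MS/MS after channel sums were equalised. It was obtained as the supernatant after 21,000xg for 90 min from pooled aliquots of K562 cells (2×10^6 cells/mL, 10 μM compound, 30 min) heated for 3 min across 48°C-58°C and extracted in PBS with 0.5% NP-40 at 4°C. Thermal stability values are relative to control samples and come from duplicates. They are given as log2 fold changes.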

sotrastaurin = compound: CN1CCN(c2nc(C3=C(c4c[nH]c5ccccc45)C(=O)NC3=O)c3ccccc3n2)CC1 [sotrastaurin]
Procedure, shortened: as §1

alvocidib = compound: CN1CC[C@H](c2c(O)cc(O)c3c(=O)cc(-c4ccccc4Cl)oc23)[C@H](O)C1 [alvocidib]
Procedure, shortened: as §1

Tubastatin A = compound: CN1CCc2c(c3ccccc3n2Cc2ccc(C(=O)NO)cc2)C1 [Tubastatin A]
Procedure, shortened: as §1

[1] = compound: CNC(=O)C1=CC=CC=C1NC2=NC(=NC=C2Cl)NC3=C(C=C(C=C3)N4CCOCC4)OC
Procedure, shortened: as §1

defactinib = compound: CNC(=O)c1ccc(Nc2ncc(C(F)(F)F)c(NCc3nccnc3N(C)S(C)(=O)=O)n2)cc1 [defactinib]
Procedure, shortened: as §1

rucaparib = compound: CNCc1ccc(-c2[nH]c3cc(F)cc4c3c2CCNC4=O)cc1 [rucaparib]
Procedure, shortened: as §1

[2] = compound: CNc1nc(-c2ccc3c(N)n[nH]c3c2)cc(N2C[C@@H](C(=O)NC3CCCCC3)CC[C@H]2C)n1
Procedure, shortened: as §1

encorafenib = compound: COC(=O)N[C@@H](C)CNc1nccc(-c2cn(C(C)C)nc2-c2cc(Cl)cc(NS(C)(=O)=O)c2F)n1 [encorafenib]
Procedure, shortened: as §1

[3] = compound: COC(=O)[C@H](CCSC)NC(=O)C1=C(C=C(C=C1)NC[C@H](CS)N)C2=CC=CC=C2
Procedure, shortened: as §1

[4] = compound: COC1=CC=C(C=C1)CN2C=CC3=C2C=C(C=C3)C(=O)NO
Procedure, shortened: as §1

filanesib = compound: CON(C)C(=O)N1N=C(c2cc(F)ccc2F)S[C@@]1(CCCN)c1ccccc1 [filanesib]
Procedure, shortened: as §1

zotarolimus = compound: CO[C@H]1C[C@@H]2CC[C@@H](C)[C@@](O)(O2)C(=O)C(=O)N2CCCC[C@H]2C(=O)O[C@H]([C@H](C)C[C@@H]2CC[C@H](n3cnnn3)[C@H](OC)C2)CC(=O)[C@H](C)/C=C(\C)[C@@H](O)[C@@H](OC)C(=O)[C@H](C)C[C@H](C)/C=C/C=C/C=C/1C [zotarolimus]
Procedure, shortened: as §1

idasanutlin = compound: COc1cc(C(=O)O)ccc1NC(=O)[C@@H]1N[C@@H](CC(C)(C)C)[C@](C#N)(c2ccc(Cl)cc2F)[C@H]1c1cccc(Cl)c1F [idasanutlin]
Procedure, shortened: as §1

alisertib = compound: COc1cc(Nc2ncc3c(n2)-c2ccc(Cl)cc2C(c2c(F)cccc2OC)=NC3)ccc1C(=O)O [alisertib]
Procedure, shortened: as §1

[5] = compound: COc1cc2nc(-c3cc(F)ccc3O)nc(N[C@@H]3CNC[C@H]3C(C)(C)O)c2cc1OC
Procedure, shortened: as §1

gefitinib = compound: COc1cc2ncnc(Nc3ccc(F)c(Cl)c3)c2cc1OCCCN1CCOCC1 [gefitinib]
Procedure, shortened: as §1

[6] = compound: COc1cccc2cc(-c3nc([C@H]4CC[C@H](C(=O)O)CC4)n4ncnc(N)c34)[nH]c12
Procedure, shortened: as §1

lapatinib = compound: CS(=O)(=O)CCNCc1ccc(-c2ccc3ncnc(Nc4ccc(OCc5cccc(F)c5)c(Cl)c4)c3c2)o1 [lapatinib]
Procedure, shortened: as §1

pictilisib = compound: CS(=O)(=O)N1CCN(Cc2cc3nc(-c4cccc5[nH]ncc45)nc(N4CCOCC4)c3s2)CC1 [pictilisib]
Procedure, shortened: as §1

Measured: log2 fold change

RHOT1 isoform 3 (UniProt Q8IXI2)
inactive: saracatinib 0.04 | sotrastaurin -0.007 | alvocidib -0.024 | Tubastatin A -0.018 | [1] 0.032 | defactinib -0.041 | rucaparib -0.011 | [2] -0.019 | encorafenib 0.044 | [3] -0.015 | [4] 0.057 | filanesib -0.117 | zotarolimus -0.061 | idasanutlin -0.027 | alisertib -0.019 | [5] -0.031 | gefitinib 0.006 | [6] -0.003 | lapatinib -0.006 | pictilisib -0.033

RFXAP (UniProt O00287)
inactive: saracatinib -0.011 | sotrastaurin 0.006 | alvocidib -0.108 | Tubastatin A -0.003 | [1] -0.074 | defactinib -0.024 | rucaparib -0.02 | [2] -0.036 | encorafenib 0.101 | [3] 0.104 | [4] 0.002 | filanesib 0.101 | zotarolimus -0.015 | idasanutlin -0.047 | alisertib -0.132 | [5] 0.065 | gefitinib 0.031 | [6] -0.035 | lapatinib -0.023

RCC2 (UniProt Q9P258)
inactive: saracatinib -0.001 | sotrastaurin 0.003 | alvocidib -0.06 | Tubastatin A 0.002 | [1] 0.127 | defactinib -0.022 | rucaparib -0.018 | [2] -0.004 | encorafenib -0.002 | [3] -0.004 | [4] -0.006 | filanesib -0.07 | zotarolimus 0.022 | idasanutlin -0.057 | alisertib -0.04 | [5] 0.035 | gefitinib 0.04 | [6] 0.004 | lapatinib -0.015 | pictilisib 0.059

2 entries picked at random from the list so far:
RHOT1 isoform 3 (UniProt Q8IXI2)
inactive: saracatinib 0.04 | sotrastaurin -0.007 | alvocidib -0.024 | Tubastatin A -0.018 | [1] 0.032 | defactinib -0.041 | rucaparib -0.011 | [2] -0.019 | encorafenib 0.044 | [3] -0.015 | [4] 0.057 | filanesib -0.117 | zotarolimus -0.061 | idasanutlin -0.027 | alisertib -0.019 | [5] -0.031 | gefitinib 0.006 | [6] -0.003 | lapatinib -0.006 | pictilisib -0.033

RFXAP (UniProt O00287)
inactive: saracatinib -0.011 | sotrastaurin 0.006 | alvocidib -0.108 | Tubastatin A -0.003 | [1] -0.074 | defactinib -0.024 | rucaparib -0.02 | [2] -0.036 | encorafenib 0.101 | [3] 0.104 | [4] 0.002 | filanesib 0.101 | zotarolimus -0.015 | idasanutlin -0.047 | alisertib -0.132 | [5] 0.065 | gefitinib 0.031 | [6] -0.035 | lapatinib -0.023

Next results follow:

RNF214 (UniProt Q8ND24)
inactive: saracatinib -0.019 | sotrastaurin -0.036 | alvocidib -0.004 | Tubastatin A 0.033 | [1] -0.021 | defactinib -0.037 | rucaparib 0.087 | [2] 0.066 | encorafenib 0.085 | [3] -0.021 | [4] -0.036 | filanesib 0.072 | zotarolimus 0.018 | idasanutlin -0.047 | alisertib -0.076 | [5] 0.089 | gefitinib 0.022 | [6] -0.078 | lapatinib 0.025 | pictilisib 0

RFC4 (UniProt P35249)
inactive: saracatinib 0.013 | sotrastaurin -0.009 | alvocidib -0.051 | Tubastatin A -0.027 | [1] -0.059 | defactinib -0.05 | rucaparib 0.027 | [2] -0.023 | encorafenib 0 | [3] -0.007 | [4] 0.01 | filanesib -0.08 | zotarolimus 0.002 | idasanutlin 0.023 | alisertib -0.047 | [5] 0.016 | gefitinib -0.029 | [6] 0.034 | lapatinib -0.036 | pictilisib -0.04

RFC2 (UniProt P35250)
inactive: saracatinib 0.001 | sotrastaurin 0.004 | alvocidib -0.047 | Tubastatin A -0.037 | [1] -0.049 | defactinib -0.035 | rucaparib 0.004 | [2] 0.014 | encorafenib 0.006 | [3] 0.021 | [4] 0.05 | filanesib -0.04 | zotarolimus 0.029 | idasanutlin -0.046 | alisertib -0.028 | [5] -0.004 | gefitinib -0.032 | [6] 0.026 | lapatinib -0.012 | pictilisib -0.045

RNF126 (UniProt Q9BV68)
inactive: saracatinib 0.065 | sotrastaurin -0.003 | alvocidib -0.041 | Tubastatin A -0.029 | [1] 0.027 | defactinib -0.004 | rucaparib -0.01 | [2] -0.051 | encorafenib -0.025 | [3] 0.054 | [4] 0.034 | filanesib -0.02 | zotarolimus -0.08 | idasanutlin 0.042 | alisertib 0.039 | [5] 0.021 | gefitinib 0.034 | [6] 0.013 | lapatinib 0.078 | pictilisib -0.107

RMND5A (UniProt Q9H871)
inactive: saracatinib -0.016 | sotrastaurin 0.005 | alvocidib -0.034 | Tubastatin A 0.024 | [1] 0.05 | defactinib -0.075 | rucaparib -0.03 | [2] 0.056 | encorafenib 0.04 | [3] -0.012 | [4] -0.065 | filanesib 0.035 | zotarolimus 0.053 | idasanutlin -0.027 | alisertib -0.038 | [5] 0.012 | gefitinib 0.021 | [6] -0.008 | lapatinib 0.01 | pictilisib 0.07

RMND1 (UniProt Q9NWS8)
inactive: saracatinib 0.023 | sotrastaurin 0.006 | alvocidib -0.052 | Tubastatin A -0.034 | [1] -0.005 | defactinib -0.002 | rucaparib 0.107 | [2] -0.037 | encorafenib -0.038 | [3] 0.022 | [4] 0.005 | filanesib -0.062 | zotarolimus 0.054 | idasanutlin -0.04 | alisertib -0.031 | [5] 0.044 | gefitinib -0.023 | [6] 0.076 | lapatinib 0.005 | pictilisib 0.191

RIF1 (UniProt Q5UIP0)
inactive: saracatinib -0.028 | sotrastaurin -0.248 | alvocidib 0.09 | Tubastatin A 0.078 | [1] 0.095 | defactinib -0.366 | rucaparib 0.041 | [2] 0.021 | encorafenib -0.163 | [3] -0.205 | filanesib -0.114 | zotarolimus -0.214 | [5] 0.051 | gefitinib 0.023 | lapatinib -0.049 | pictilisib 0.051

RNASEH2A (UniProt O75792)
inactive: saracatinib -0.071 | sotrastaurin 0.029 | Tubastatin A 0.033 | [1] 0.029 | defactinib 0.117 | rucaparib 0.018 | [2] 0.033 | encorafenib -0.003 | [3] 0.096 | [4] 0.029 | filanesib -0.005 | zotarolimus 0.034 | idasanutlin -0.007 | alisertib -0.016 | [5] 0.049 | gefitinib -0.013 | [6] 0.031 | lapatinib -0.029 | pictilisib 0.234

RNF138 (UniProt Q8WVD3)
inactive: saracatinib -0.001 | sotrastaurin 0.042 | alvocidib -0.208 | Tubastatin A -0.003 | [1] -0.063 | defactinib -0.204 | rucaparib -0.022 | [2] -0.008 | encorafenib 0.018 | [3] 0.126 | filanesib -0.027 | zotarolimus 0 | idasanutlin 0.054 | alisertib -0.055 | [5] -0.154 | gefitinib -0.189 | [6] 0.041 | lapatinib -0.006 | pictilisib 0.232

RIPK2 (UniProt O43353)
inactive: saracatinib -0.048 | sotrastaurin 0.066 | alvocidib -0.014 | Tubastatin A -0.006 | [1] 0.027 | defactinib -0.014 | rucaparib 0.026 | [2] -0.038 | encorafenib -0.01 | [3] 0.015 | [4] 0.181 | filanesib -0.017 | zotarolimus -0.01 | idasanutlin -0.005 | alisertib -0.006 | [5] -0.039 | [6] -0.03 | lapatinib 0.059 | pictilisib -0.083

RENBP (UniProt P51606)
inactive: saracatinib 0.016 | sotrastaurin 0.03 | alvocidib -0.036 | Tubastatin A 0.012 | [1] -0.021 | defactinib 0.005 | rucaparib -0.077 | [2] -0.032 | encorafenib -0.011 | [3] 0.027 | [4] -0.049 | filanesib -0.035 | zotarolimus 0.058 | idasanutlin -0.042 | alisertib -0.023 | [5] -0.189 | gefitinib 0.032 | [6] 0.06 | lapatinib -0.031 | pictilisib -0.06

RELN (UniProt P78509)
inactive: saracatinib 0.019 | sotrastaurin 0.031 | alvocidib 0.021 | Tubastatin A 0.028 | [1] 0.033 | defactinib 0.044 | rucaparib 0.06 | [2] -0.029 | encorafenib -0.001 | [3] -0.048 | [4] -0.038 | filanesib 0.074 | zotarolimus -0.007 | idasanutlin 0.022 | alisertib 0.325 | [5] -0.028 | gefitinib -0.071 | [6] -0.082 | lapatinib 0.185 | pictilisib 0.026

RHBDD1 (UniProt Q8TEB9)
inactive: saracatinib 0.028 | sotrastaurin -0.026 | alvocidib -0.005 | [1] -0.026 | defactinib -0.164 | rucaparib 0.098 | [2] -0.043 | encorafenib 0.024 | [3] 0.18 | [4] -0.034 | filanesib 0.014 | zotarolimus 0.024 | alisertib 0.088 | [5] -0.115 | gefitinib -0.119 | [6] -0.155 | lapatinib -0.019 | pictilisib 0.098
